{"source": "patent US20220031657A1", "about": "(NOVARTIS AG, priority 2017, published 2022)", "system": "MCF-7 parental (WT) cells", "test": "cells", "details": "Homo sapiens, MCF7, 168 h, read-out: MCF-7 proliferation Ave IC50, ESR1 WT", "data": [{"smiles": "CC/C(=C(\\c1ccccc1)c1ccc(OCCN(C)C)cc1)c1ccccc1", "note": "[Tamoxifen]", "values": [{"measurement": "IC50", "value": 4.5, "unit": "nM"}]}]}
